Taken from: PubChem BioAssay AID1259425 (University of Nebraska Medical Center, 2018)

Purpose: 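Seek colon cancer weak points whose silencing resembles KSR1 loss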 (primary screen)
Cells: HCT116 human colon cancer cells
Knock-down reagent: siRNA pool against human genes, 50 nM siRNA
Detection: 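mRNA of six signature genes measured together by branched-DNA assay after 50 nM siRNA pool, blank removed, divided by geometric mean of two housekeeping genes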
Direction: BNIP3L mRNA: higher = more BNIP3L transcript after knockdown
The deposit covers about 14,000 reagents; shown is a part drawn at random. Not all columns of the deposit are shown. No sequences are given here. Not given: the time to read-out.

| Target gene | BNIP3L mRNA, set 1 |
| --- | --- |
| STK25 (GeneID 10494) | 0.106 |
| LMO2 (GeneID 4005) | 0.129 |
| CDKL5 (GeneID 6792) | 0.0911 |
| SLC7A4 (GeneID 6545) | 0.229 |
| NYAP2 (GeneID 57624) | 0.0821 |
| MTARC2 (GeneID 54996) | 0.0501 |
| SPINK7 (GeneID 84651) | 0.264 |
| MGAM (GeneID 8972) | 0.151 |
| FLVCR1 (GeneID 28982) | 0.0962 |
| FAHD1 (GeneID 81889) | 0.177 |
| LHX5 (GeneID 64211) | 0.0618 |
| ATF7 (GeneID 11016) | 0.0604 |
| SPRYD3 (GeneID 84926) | 0.063 |
| CCNH (GeneID 902) | 0.212 |
| PPP2R2C (GeneID 5522) | 0.0811 |
| CCN4 (GeneID 8840) | 0.392 |
| BMPR1B (GeneID 658) | 0.133 |
| INTS7 (GeneID 25896) | 0.0741 |
| GCNT3 (GeneID 9245) | 0.147 |
| CNN2 (GeneID 1265) | 0.129 |

2 entries from above, sorted by “BNIP3L mRNA, set 1”, ascending:
| Target gene | BNIP3L mRNA, set 1 |
| --- | --- |
| SPRYD3 (GeneID 84926) | 0.063 |
| CCNH (GeneID 902) | 0.212 |
